Laboratory results taken from article PMC12141448.

Biological target: T1, PelB of P. aeruginosa PAO1, C-terminal fragment (residues 762-1193) with three periplasmic TPR repeats and the transmembrane β-barrel (Pseudomonas aeruginosa PAO1) (UniProt Q9HZE5)
T1 sequence: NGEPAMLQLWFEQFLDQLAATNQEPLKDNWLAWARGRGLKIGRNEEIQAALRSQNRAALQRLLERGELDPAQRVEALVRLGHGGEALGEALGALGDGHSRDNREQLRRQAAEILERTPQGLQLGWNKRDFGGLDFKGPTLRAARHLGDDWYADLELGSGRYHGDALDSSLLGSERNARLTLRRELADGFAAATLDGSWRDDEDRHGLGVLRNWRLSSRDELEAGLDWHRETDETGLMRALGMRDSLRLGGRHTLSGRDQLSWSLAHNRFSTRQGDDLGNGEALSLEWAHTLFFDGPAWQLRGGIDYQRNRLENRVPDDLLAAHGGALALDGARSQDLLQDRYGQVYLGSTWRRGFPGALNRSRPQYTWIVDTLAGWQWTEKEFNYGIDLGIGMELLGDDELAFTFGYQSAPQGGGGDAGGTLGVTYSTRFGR
Assay: pull-down; Ni-NTA IMAC on His-tagged PelB co-expressed with tag-less PelC in E. coli; membranes solubilised with 2% DDM; 50 mM HEPES pH 7.4, 300 mM KCl, 5% glycerol, 0.05% DDM, 4 °C; SDS-PAGE of the fractions

Substance: PelC_(W149A) mutant (Pseudomonas aeruginosa PAO1)
- binding: no binding

Results are given in words; binding and its absence hold for the method and conditions named. Binding seen in cells or lysates may run through a third protein.
